Experimental data: PubChem BioAssay AID504786 (Drosophila RNAi Screening Center, 2011)
In all, the deposit lists about 21,000 reagents; below is a random part of those with a known target gene and a result. 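Primary screen; positive scores mean lost reporter signal, so the sign may be inverted from the usual convention.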 A plus sign joins genes that one reagent is predicted to hit. Further read-outs or replicates are left out here.

Assay: 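Fly genes required for HIF-dependent transcription when hypoxia is mimicked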 (primary screen)
System: Drosophila S2 cells with a stable HIF luciferase reporter
Reagent: long dsRNA against Drosophila genes, about 0.2 µg dsRNA per well of a 384-well plate
Time to read-out: three days of knock-down, then 20 h of DFO before reading
Conditions: desferrioxamine (DFO) at 100 µM, an iron chelator that mimics hypoxia, for 20 h
Measured: 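HIF reporter luminescence in cells given 100 µM DFO for 20 h, using the mouse ldh-a hypoxia-response element, scored as per-plate z-scores; higher means greater loss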
Scale: z-score: higher = stronger loss of HIF reporter signal

z-score, replicate 1, by target and reagent
sowi (solwind): DRSC12558 -0.2
CG4641 (retired record): DRSC10439 -0.1
Cyp4p2 (Cytochrome P450 4p2): DRSC07373 -0.2
CG12479: DRSC19459 -0.2
PGS1 (Phosphatidylglycerophosphate synthase 1): DRSC16304 -1.1
CG17612: DRSC00505 -0.2
CG13063: DRSC09946 0
CG14219: DRSC19576 -0.2
GstD10 (Glutathione S transferase D10): DRSC15346 -0.3
z (zeste): DRSC18855 2.2
Cda9 (Chitin deacetylase-like 9): DRSC06593 -0.1
Shaw (Shaker cognate w): DRSC00433 -0.3; DRSC00788 -0.4
CG11396: DRSC11654 -0.1
phtm (phantom): DRSC20237 -0.4
shps (sheepish): DRSC14614 0
Tep5Psi (Thioester-containing protein 5 pseudogene): DRSC02183 -0.3; DRSC02184 -0.2
Gos28 (Golgi SNARE, 28 kDa): DRSC16292 -1.4
CG12522: DRSC09088 -0.1
CG11741: DRSC14367 -0.5
CG14864: DRSC14987 -0.3
CG18558: DRSC00525 0
CG1889: DRSC18195 -0.3
Strip (Striatin interacting protein): DRSC08194 2.2
CG13527: DRSC04169 -0.4
CG14200: DRSC19555 -0.3
Lcp4 (Larval cuticle protein 4): DRSC07458 -0.3
Grl43a (Gustatory receptor-like 43a): DRSC06383 -0.1
Trf4 (TBP-related factor 4): DRSC00729 -0.1
ARY (retired record): DRSC20867 -0.1
otu (ovarian tumor): DRSC18811 -0.3
Sap130 (Sin3A-associated protein 130): DRSC09680 -0.4
atlas: DRSC04183 0
mod(mdg4) (modifier of mdg4): DRSC13474 0.4; DRSC13475 0.3; DRSC13478 0; DRSC13479 -0.1; DRSC15042 0.1; DRSC17000 0.2
CG5172: DRSC19936 0.1
CG33177: DRSC19949 -0.4
CG12105: DRSC08255 -0.2
Vm34Ca (Vitelline membrane 34Ca): DRSC03475 -0.2
alpha-Est2 (alpha-Esterase-2): DRSC12614 -0.4
Sras (severas): DRSC11287 -0.3
Sfmbt (Scm-related gene containing four mbt domains): DRSC02552 -0.5
Ssl1 (Suppressor of stem-loop mutation): DRSC11634 -0.4
CG6236: DRSC15999 -0.4
CG9265: DRSC03178 -0.2; DRSC03179 -0.2
nSMase (neutral sphingomyelinase): DRSC08237 -0.4
CG9933: DRSC03276 -0.3
Neos (Neosin): DRSC11235 4.3
Rnmt (RNA guanine-7 methyltransferase): DRSC03558 -0.4
CycB (Cyclin B): DRSC04605 0.1
CG1316: DRSC08304 0
CG11562: DRSC00316 -0.3
CG13227: DRSC06347 -0.2
mask (multiple ankyrin repeats single KH domain): DRSC15370 -0.2; DRSC16005 -0.1; DRSC16018 0.1
CG13771: DRSC02277 -0.3
ena (enabled): DRSC05779 -1; DRSC07610 -0.2
CG42340: DRSC17458 -0.4; DRSC17841 -0.3; DRSC18305 0.2
CG3638: DRSC18533 1.6

Reprinted from the entries so far (8 entries):
z-score, replicate 1, by target and reagent
CG9933: DRSC03276 -0.3
Neos (Neosin): DRSC11235 4.3
Rnmt (RNA guanine-7 methyltransferase): DRSC03558 -0.4
CycB (Cyclin B): DRSC04605 0.1
CG1316: DRSC08304 0
CG11562: DRSC00316 -0.3
CG13227: DRSC06347 -0.2
mask (multiple ankyrin repeats single KH domain): DRSC15370 -0.2

Further records follow.
z-score, replicate 1, by target and reagent
Best2 (Bestrophin 2): DRSC09712 -0.3
ftz-f1 (ftz transcription factor 1): DRSC11347 -0.3
Kat60 (Katanin 60): DRSC12378 -0.2
Skadu: DRSC01490 -0.3
Cap-H2 (Chromosome associated protein H2): DRSC14908 -0.3
sqa (spaghetti-squash activator): DRSC06693 -0.4
H15: DRSC03339 -0.1
CG8765: DRSC11041 0.4
CG6429: DRSC06986 -0.3
ddbt (deadbeat): DRSC07869 -0.4
CR42545 (pseudo): DRSC03709 -0.3
Osi12 (Osiris 12): DRSC12177 -0.4
Tsp42Eq (Tetraspanin 42Eq): DRSC06180 -0.2
Spn42Dd (Serpin 42Dd): DRSC05024 -0.2
Cyp311a1 (Cytochrome P450 311a1): DRSC20239 -0.2
CG11379: DRSC18629 -0.3
NHP2: DRSC11229 -0.4
Prestin: DRSC10507 -0.5
CG13045: DRSC09926 -0.3
FASN2 (Fatty acid synthase 2): DRSC00167 -0.3; DRSC00610 -0.4
CG14624: DRSC18634 -0.3
CG7906: DRSC10928 -0.3
BckdhB (Branched chain keto acid dehydrogenase E1 subunit beta): DRSC21183 -0.2
Piezo: DRSC03092 -0.3
CG9175: DRSC03153 -0.4
CG30271: DRSC04170 -0.4
CG31104: DRSC14658 -0.4
CG17380: DRSC15230 -0.5
sti (sticky): DRSC09739 -0.3; DRSC09740 -0.1
Rgk2 (Rad, Gem/Kir family member 2): DRSC06503 -0.3
CRMP (Collapsin Response Mediator Protein): DRSC12073 0.5; DRSC12345 -0.3
Spred (Sprouty-related protein with EVH-1 domain): DRSC05976 -0.4
EMC2B + EMC2A: DRSC15241 -0.1
Gr64f (Gustatory receptor 64f): DRSC08447 -0.1
